Assay results: the supplement of paper PMC3334620
Over roughly 33,000 sequences, “E-score (-0.5 to 0.5)” has its median near -0.0014; the highest 2% begin near 0.25. This is one part of the list.

What follows are sequences tested against T1, Cad1 (UniProt P24813) (assay: PBM E-score (8-mer binding enrichment) (E-score (-0.5 to 0.5)); higher = stronger / more preferred TF binding). Conditions: protein concentration: 100 nM; construct: GST-full length.
T1 sequence: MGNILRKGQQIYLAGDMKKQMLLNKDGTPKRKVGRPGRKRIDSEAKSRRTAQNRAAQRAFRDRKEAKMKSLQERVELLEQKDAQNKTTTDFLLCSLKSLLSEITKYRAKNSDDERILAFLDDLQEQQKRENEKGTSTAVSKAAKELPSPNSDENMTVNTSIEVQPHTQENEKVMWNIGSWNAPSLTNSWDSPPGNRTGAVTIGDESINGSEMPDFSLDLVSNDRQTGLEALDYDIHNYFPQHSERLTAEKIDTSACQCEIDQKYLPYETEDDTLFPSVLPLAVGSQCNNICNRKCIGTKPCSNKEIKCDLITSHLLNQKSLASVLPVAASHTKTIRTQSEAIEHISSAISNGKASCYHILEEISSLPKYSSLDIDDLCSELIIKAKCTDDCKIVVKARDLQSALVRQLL
Procedure, shortened: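 Bound GST-tagged yeast transcription factors, applied at about 100-200 nM to double-stranded universal all-10-mer Agilent arrays, were detected with fluorescent anti-GST. Scans were normalised with masliner. A modified Wilcoxon-Mann-Whitney statistic, the E-score, was assigned to each ungapped eight-base word pooled with its reverse complement by the Universal PBM Analysis Suite.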
AAGAAGGT was tested, and the “PBM E-score” value was -0.0757.
AGTCCACT was tested, and the “PBM E-score” value was -0.221.
In the case of CTACCGCC, the “PBM E-score” value is reported as -0.153.
In the case of CTGCCAAA, the “PBM E-score” value is reported as 0.0517.
For CGATTCTA, the “PBM E-score” value was -0.0648.
In the case of AAGTCATC, the “PBM E-score” value is reported as 0.0371.
With AGAAGGCC the “PBM E-score” value was -0.104.
With AAGAACGG the “PBM E-score” value was -0.0894.
TCTAAAGA was tested, and the “PBM E-score” value was 0.148.
CCTTAGCC was tested, and the “PBM E-score” value was -0.00184.
For CGCGAGGC, the “PBM E-score” value was 0.13.
In the case of AATAGATC, the “PBM E-score” value is reported as 0.0487.
AACCTTAT was tested, and the “PBM E-score” value was -0.0603.
With ACTCCGGA the “PBM E-score” value was 0.134.
For AACGGATA, the “PBM E-score” value was 0.252.
With CCAGTCAA the “PBM E-score” value was -0.0575.
With ACGGGCAC the “PBM E-score” value was -0.14.
In the case of ATGCGAAT, the “PBM E-score” value is reported as -0.0573.
For AATAATGA, the “PBM E-score” value was 0.0377.
GAAAATGA was tested, and the “PBM E-score” value was 0.0821.
For TAAAGCCA, the “PBM E-score” value was 0.14.
TCATGTCA was tested, and the “PBM E-score” value was 0.139.
With CCAAGTCC the “PBM E-score” value was -0.185.
In the case of AAGGCGCC, the “PBM E-score” value is reported as 0.0395.
In the case of CATTATAC, the “PBM E-score” value is reported as 0.0868.
For CTCATTCA, the “PBM E-score” value was 0.0583.
For GCGTTGGA, the “PBM E-score” value was -0.0498.
In the case of ATGAGCCC, the “PBM E-score” value is reported as -0.194.
CCAGCCTC was tested, and the “PBM E-score” value was -0.312.
In the case of CTTAAGAA, the “PBM E-score” value is reported as 0.167.
In the case of GAGCCTGC, the “PBM E-score” value is reported as -0.0048.
With AAACGGAC the “PBM E-score” value was -0.00593.
ACGTCCTG was tested, and the “PBM E-score” value was -0.0935.
With CAGAATAG the “PBM E-score” value was 0.0197.
With GCCCGGAA the “PBM E-score” value was 0.0643.
In the case of CTGGGATC, the “PBM E-score” value is reported as -0.106.
CCACCGCG was tested, and the “PBM E-score” value was 0.156.
With TACGTCGA the “PBM E-score” value was -0.0298.
TACTCCGA was tested, and the “PBM E-score” value was 0.0119.
In the case of CTAACATC, the “PBM E-score” value is reported as -0.0169.
In the case of ACAAGGCT, the “PBM E-score” value is reported as -0.161.
With CCAGTGAG the “PBM E-score” value was -0.204.
With CCTGTCCA the “PBM E-score” value was -0.176.
For AATCGTCC, the “PBM E-score” value was 0.107.
In the case of CTTCCTTA, the “PBM E-score” value is reported as -0.102.
In the case of CCCTGTGC, the “PBM E-score” value is reported as -0.162.
For GATGTTGA, the “PBM E-score” value was -0.0305.
CAAGCTGA was tested, and the “PBM E-score” value was 0.248.
In the case of ATTATGGA, the “PBM E-score” value is reported as -0.00855.
For AAATGGGT, the “PBM E-score” value was 0.131.
For CAAATCTC, the “PBM E-score” value was 0.0661.
CTGATCTC was tested, and the “PBM E-score” value was -0.00887.
For GCACAACC, the “PBM E-score” value was -0.051.
With CAGTTGCC the “PBM E-score” value was -0.0209.
With GGGGTTTA the “PBM E-score” value was -0.128.
With ACCCTACT the “PBM E-score” value was -0.122.
For AAGGGGCA, the “PBM E-score” value was -0.173.
In the case of TGCAGCAA, the “PBM E-score” value is reported as 0.11.
For GAAACGCC, the “PBM E-score” value was 0.0411.
AGTTTCGG was tested, and the “PBM E-score” value was 0.06.
In the case of ATCGCTGC, the “PBM E-score” value is reported as 0.0431.
ATGCAATG was tested, and the “PBM E-score” value was -0.00462.
In the case of CCGGGGGA, the “PBM E-score” value is reported as -0.332.
In the case of AGACAGGA, the “PBM E-score” value is reported as 0.0481.
GAGGCATC was tested, and the “PBM E-score” value was -0.186.
ACACGACA was tested, and the “PBM E-score” value was 0.0619.
TCCGTAAA was tested, and the “PBM E-score” value was 0.0234.
With GTAGAGCA the “PBM E-score” value was -0.217.
With AGCCGGCG the “PBM E-score” value was 0.0742.
With CTTCTCAC the “PBM E-score” value was 0.00034.
CGACCCAG was tested, and the “PBM E-score” value was -0.178.
In the case of CAGGCCGA, the “PBM E-score” value is reported as 0.00503.
For CCCTCGGA, the “PBM E-score” value was -0.0356.
For ACAACGAT, the “PBM E-score” value was 0.113.
For CCTCGCAC, the “PBM E-score” value was -0.022.
In the case of TCTGACCA, the “PBM E-score” value is reported as 0.127.
With ACTCTGGG the “PBM E-score” value was -0.162.
AGCGCTCG was tested, and the “PBM E-score” value was -0.0111.
With CCTCATAA the “PBM E-score” value was -0.0485.
In the case of AGTTGGTG, the “PBM E-score” value is reported as 0.00622.
In the case of ATGGATTA, the “PBM E-score” value is reported as 0.0129.
For ACATGGCT, the “PBM E-score” value was -0.15.
ATCATTGC was tested, and the “PBM E-score” value was -0.0613.
GCGGCGAC was tested, and the “PBM E-score” value was 0.0462.
With CCACCGGA the “PBM E-score” value was 0.213.
With ACAACCAC the “PBM E-score” value was 0.056.
